Experimental findings from PubChem BioAssay AID445 (National Center for Advancing Translational Sciences (NCATS), 2006) are described below.

The AC50 is the concentration at which the activity in the assay is half-maximal.

Some of the results follow. Shown are side measurements of this screen, not its main read-out; they come without a call. The list favours compounds with an active or inconclusive main result. Words in brackets tell the shape of the fitted curve; partial curves, single points and poor fits give uncertain potencies.

The test in a line: IkB Signaling. To be noted: ABC-DLBCL IkBa-CBG/CBR dual luciferase ratio (green luciferase fused to IkBa over red control in OCI-Ly3 lymphoma cells), 4 h. In short, it runs like this: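 Curves were fitted separately to fusion (green), unfused (red) and ratio luminescence, then classed by r2, magnitude and activity. Cells: OCI-Ly3, 4 h compound plus doxycycline at 37C; 10 uM MG-132 defined full response.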
[1] abbreviates: measured here: control luc red channel unless noted.
The mark [2] stands for this setting: measured here: IkB-luc green channel.
Setting [3] is: measured here: control luc red channel.

As to `CCc1nnc(NC(=O)OCc2ccccc2)s1`, the half-maximal activity concentration (AC50) under setting [1] is 10 µM [falling, partial curve].

On to `COc1ccc(C2Oc3nc(SC)nnc3-c3ccccc3N2C(C)=O)cc1` (centres undefined), for which the AC50 under setting [1] is 10 µM [falling, partial curve].

In the case of `COc1ccc(NC(=O)C2CCN(c3cnccn3)CC2)cc1Cl`, the concentration at half-maximal activity (AC50) under setting [1] was 15.8 µM [falling, single point].

`Cc1ccc2[nH]c3c(=O)n(CC(=O)NCCc4ccc(Cl)cc4)ncc3c2c1`: the AC50 under setting [1] is 20 µM [rising, partial curve].

For the molecule `CC(=NCc1ccco1)c1c(C)[nH]n(-c2nc3ccccc3s2)c1=O`, under setting [1], the AC50 was 0.00316 µM [falling, full curve].

For `Cc1cccc(NC(=O)COc2cccc3c(=O)n(C)ccc23)c1C`, under setting [1], the AC50 is 20 µM [falling, single point].

As for `CCOC(=O)c1cc(-c2ccccc2)n(-c2cccc(C(=O)Nc3cccc(C(C)=O)c3)c2)c1C`, under setting [1], the AC50 was 3.98 µM [falling, partial curve].

With `COc1cccc(N2CCN(C(=O)CN3C(=O)COc4ccc(S(=O)(=O)N5CCC(C)CC5)cc43)CC2)c1`, the AC50 under setting [1] was 20 µM [falling, single point].

Consider `Cc1oc2c(c(C)cc3oc(=O)c(CC(=O)NCc4ccccc4)c(C)c32)c1C`, for which, under setting [1], the AC50 was 39.8 µM [falling, single point].

For the molecule `CCN(CC)S(=O)(=O)c1cccc(C(=O)Nc2nc3cc4c(cc3s2)OCCO4)c1`, the AC50 under setting [1] was 3.98 µM [falling, full curve].

In the case of `COc1cccc(-c2nccc(NCCc3c[nH]c4ccc(OC)cc34)n2)c1`, under setting [1], the AC50 was 3.16 µM [falling, partial curve].

`CC1(C)CC(=O)CC(C2(O)C(=O)N(Cc3ccccc3)c3ccccc32)O1` (centres undefined): the AC50 is 39.8 µM [rising, single point] under setting [2] and 25.1 µM [rising, partial curve] under setting [3].

On to `COc1ccc(C(=O)NCC(c2cccnc2)N2CCc3ccccc32)cc1OC` (centres undefined), for which, under setting [1], the AC50 is 12.6 µM [falling, partial curve].

Consider `Cc1cccc(CNC(=O)c2ccc(NC(=O)N3CCSc4ccccc43)cc2)c1`, for which, under setting [1], the AC50 was 20 µM [falling, single point].

For `Cc1cccc(Oc2ccc3c(c2)Oc2ccccc2NC3=O)c1`, the AC50 under setting [1] is 3.98 µM [rising, single point].

In the case of `CNC(=O)c1c(NC(=O)c2ccc(S(=O)(=O)N3CCCCC3C)cc2)sc2c1CCC2` (centres undefined), the concentration at half-maximal activity (AC50) under setting [1] is 10 µM [falling, partial curve].

Take `COc1ccc(-c2nnc(SCC(=O)N(C)Cc3ccccc3)o2)cc1OC`: the AC50 under setting [1] was 2.51 µM [falling, full curve].

Consider `O=S(=O)(Nc1cccc(-c2ccc(N3CCCC3)nn2)c1)c1ccc(F)c(C(F)(F)F)c1`, for which the AC50 under setting [1] is 20 µM [falling, single point].

With `CC1CCN(Cc2ccc(NC(=O)CC3Oc4ccccc4NC3=O)cc2)CC1` (centres undefined), under setting [1], the AC50 is 12.6 µM [falling, partial curve].

Consider `COc1ccc(C(=O)Nc2nnc(C(F)(F)F)s2)cc1`, for which, under setting [1], the AC50 is 0.158 µM [falling, full curve].

For the molecule `CCCCSCCCNC(=O)C1CCC(CNS(=O)(=O)c2c(C)cc(C)cc2C)CC1` (centres undefined), the AC50 under setting [1] is 5.01 µM [falling, partial curve].

As for `CC(=O)c1ccc(NC(=O)CCc2c(C)nn(-c3ccc(N4CCCCC4)nn3)c2C)cc1`, the AC50 under setting [1] was 12.6 µM [falling, partial curve].

As for `O=C(CSc1nc2c([nH]c3ccccc32)c(=O)n1-c1ccccc1)N1CCCCCC1`, the AC50 under setting [1] was 3.16 µM [rising, full curve, poor fit].

In the case of `C=CCN1C(=Nc2cccnc2)SCC1(O)c1ccc(C)cc1` (centres undefined), the AC50 under setting [1] was 10 µM [falling, partial curve].

On to `O=C(NCCCN1CCN(c2ccccc2F)CC1)c1cc2c(s1)-c1ccccc1OC2`, for which the AC50 under setting [1] was 25.1 µM [falling, partial curve].

As to `O=C(O)c1ccc(NC(=O)c2cc3ccccc3o2)cc1`, under setting [1], the AC50 is 0.1 µM [falling, full curve].

For `CCc1ccc(-n2nc(C)c3c(C)cc(=O)n(CC(=O)Nc4ccccc4C(=O)OC)c32)cc1`, under setting [1], the AC50 was 3.98 µM [falling, partial curve].

With `CCCCOc1ccc(C(=O)N/C(=C\c2ccc(Br)cc2)C(=O)NC2CCCCC2)cc1`, under setting [1], the AC50 is 0.398 µM [falling, full curve, poor fit].

As for `O=C(Nc1cccc(F)c1)C1CCN(c2nc3ccccc3[nH]2)CC1`, under setting [1], the AC50 is 2.51 µM [falling, partial curve, poor fit].

Consider `Cc1cccc(-n2ccnc2SCC(=O)Nc2ccc3c(c2)OCO3)c1`, for which the AC50 under setting [1] was 31.6 µM [falling, single point].

`COC(=O)c1ccc(OCC2c3cc(OC)c(OC)cc3CCN2C(=O)c2ccco2)cc1` (centres undefined): the AC50 under setting [1] was 10 µM [falling, partial curve].

On to `Cc1nc2c3ccccc3nc(NNC(=O)CCC(=O)N3CCN(c4cccc(C(F)(F)F)c4)CC3)n2n1`, for which the AC50 under setting [1] is 25.1 µM [falling, single point].

Regarding `O=C(C1CCN(S(=O)(=O)c2cccc3nsnc23)CC1)N1CC=C(c2ccccc2)CC1`, under setting [1], the AC50 was 10 µM [falling, partial curve].

`Cc1ccc(NC(=O)CSCc2cnn(-c3ccccc3)c2-n2cccc2)c(Cl)c1`: under setting [1], the AC50 was 39.8 µM [falling, single point].

For `CCc1ccccc1NC(=O)Cn1c(=O)n(-c2ccc(C)c(C)c2)c(=O)c2oc3ccccc3c21`, the AC50 under setting [1] is 0.631 µM [falling, partial curve].

With `CCCN(CCC)S(=O)(=O)c1cc(Br)cc2c1N(C(=O)CC)CC2`, the AC50 under setting [1] was 12.6 µM [falling, partial curve].

Consider `COc1cc(Br)ccc1C1C(C(=O)Nc2ccc(C)cc2C)=C(C)Nc2nnnn21` (centres undefined), for which the AC50 under setting [1] was 39.8 µM [falling, single point].

Regarding `COc1ccc(CCNc2nc3ccccc3c3nc(-c4cccc(C)c4)nn23)cc1OC`, the AC50 under setting [1] is 15.8 µM [falling, single point].

Consider `COc1ccc(S(=O)(=O)NCCc2sc(-c3cccc(C)c3)nc2C)cc1`, for which, under setting [1], the AC50 was 39.8 µM [falling, single point].

On to `Cc1ccc(CCNC(=O)c2cccc(Nc3nc4ccccc4nc3-n3nc(C)cc3C)c2)cc1`, for which, under setting [1], the AC50 is 31.6 µM [falling, single point].

With `CCc1ccc(-n2nc(C)c3c(C(=O)N4CCN(c5cccc(Cl)c5)CC4)cc(C)nc32)cc1`, the AC50 under setting [1] was 39.8 µM [falling, single point].

`Cc1nn(CC(=O)N2CCN(c3cccc(Cl)c3)CC2)c(=O)c2c1sc1ccccc12`: the AC50 under setting [1] is 15.8 µM [falling, single point].

With `CCOC(=O)c1ccc(NC(=O)CCc2c(C)nc3c(c(C)nn3C(C)(C)C)c2C)cc1`, under setting [1], the AC50 was 25.1 µM [falling, single point].

As to `CCOc1cc(C(=O)OCc2cc(=O)n3nc(C4CC4)sc3n2)cc(OCC)c1OCC`, the AC50 under setting [1] was 39.8 µM [falling, single point].

For the molecule `CC(C)CCNC(=O)c1ccc(Cn2c(SCC(N)=O)nc3ccccc3c2=O)cc1`, the AC50 under setting [1] is 2.51 µM [falling, partial curve].

For `COc1cc(OC)c(NC(=O)NCc2cccn2Cc2ccccc2)cc1Cl`, the AC50 under setting [1] is 12.6 µM [falling, partial curve].

For `COC(=O)c1c(-c2cccs2)csc1NC(=O)c1cc(OC)c(OC)c(OC)c1`, the AC50 under setting [1] is 0.794 µM [falling, full curve].

Take `COc1ccc(-c2cn3c(n2)sc2cc(C(=O)Nc4ccc(F)cc4Cl)ccc23)cc1`: under setting [1], the AC50 was 1.58 µM [falling, full curve].

Regarding `COc1ccc(-n2ccn(CC(=O)Nc3ccc(C)c(C)c3)c(=O)c2=O)cc1OC`, the AC50 under setting [1] is 2 µM [rising, full curve].

In the case of `CC1CCCN(S(=O)(=O)c2cc(C(=O)NCc3ccccc3Cl)n(C)c2)C1` (centres undefined), under setting [1], the AC50 is 25.1 µM [falling, single point].

For `Cc1ccc(NC(=O)C(=O)NCC(c2cccnc2)N2CCc3ccccc3C2)cc1` (centres undefined), the AC50 under setting [1] is 2 µM [falling, partial curve].

Take `C=Cc1ccc(Cn2c(C(=O)O)c(CNCc3ccccc3)c3ccc(OC)cc32)cc1`: under setting [1], the AC50 was 15.8 µM [falling, single point].

Turning to `CC1=CC(=O)c2ccccc2C1=O`, under setting [1], the AC50 was 10 µM [falling, partial curve].

Take `CCN(C(=O)c1cc2cc(Br)cc(OC)c2oc1=O)c1ccccc1`: the AC50 under setting [1] was 31.6 µM [falling, single point].

For `CCCCCOC(=O)c1[nH]c2c(c1C)C(=O)CC(c1ccco1)C2` (centres undefined), the AC50 by setting is: under setting [2], 0.126 µM [rising, full curve]; under setting [3], 0.0794 µM [rising, full curve].

On to `O=C(NC1CCCCCC1)c1ccc(CS(=O)c2ccc(Br)cc2)o1` (centres undefined), for which the AC50 under setting [1] was 12.6 µM [falling, single point].

Turning to `COc1cccc(C2c3c(-c4ccccc4O)n[nH]c3C(=O)N2Cc2cccnc2)c1` (centres undefined), under setting [1], the AC50 is 12.6 µM [falling, partial curve].

For the molecule `CCOc1ccc(CNC(=O)C2=Cc3cc(Br)ccc3OC2)cc1OC`, the AC50 under setting [1] was 25.1 µM [falling, partial curve].

Consider `N=C1[C@@H](O)[C@]2(I)c3ccccc3N3C(=N)[C@H](O)[C@@H]4c5ccccc5N1[C@@H]4[C@@H]32`, for which the AC50 under setting [1] is 0.1 µM [falling, full curve].

Consider `COc1ccc(Cl)cc1NC(=O)CSc1nc(=O)[nH]c2c1CCCC2`, for which the AC50 under setting [1] was 10 µM [falling, partial curve].

`Cc1noc(C)c1COc1cccc(C(=O)OCCOc2ccc(F)cc2)c1`: the AC50 under setting [1] was 31.6 µM [falling, single point].

For the molecule `CC(=O)N1c2c(cc(Br)cc2S(=O)(=O)NCc2ccccc2Cl)CC1C` (centres undefined), the AC50 under setting [1] was 25.1 µM [falling, single point].
